Source: the supplement of paper PMC10849652
Some of the results follow.

Amino acid sequences for entries named in this document (tags omitted). A change or cut given only in a name is not applied to a line headed by its entry.
UniProt P28289: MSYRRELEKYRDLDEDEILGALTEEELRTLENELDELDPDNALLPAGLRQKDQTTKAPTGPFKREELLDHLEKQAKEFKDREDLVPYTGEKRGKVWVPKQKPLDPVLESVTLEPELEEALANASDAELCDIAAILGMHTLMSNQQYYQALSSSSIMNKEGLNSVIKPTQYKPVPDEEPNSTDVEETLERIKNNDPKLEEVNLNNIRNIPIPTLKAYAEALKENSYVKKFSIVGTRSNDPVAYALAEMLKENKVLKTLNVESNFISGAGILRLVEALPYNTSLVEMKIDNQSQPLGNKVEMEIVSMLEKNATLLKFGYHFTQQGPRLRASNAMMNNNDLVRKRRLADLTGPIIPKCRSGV
UniProt Q9NV96: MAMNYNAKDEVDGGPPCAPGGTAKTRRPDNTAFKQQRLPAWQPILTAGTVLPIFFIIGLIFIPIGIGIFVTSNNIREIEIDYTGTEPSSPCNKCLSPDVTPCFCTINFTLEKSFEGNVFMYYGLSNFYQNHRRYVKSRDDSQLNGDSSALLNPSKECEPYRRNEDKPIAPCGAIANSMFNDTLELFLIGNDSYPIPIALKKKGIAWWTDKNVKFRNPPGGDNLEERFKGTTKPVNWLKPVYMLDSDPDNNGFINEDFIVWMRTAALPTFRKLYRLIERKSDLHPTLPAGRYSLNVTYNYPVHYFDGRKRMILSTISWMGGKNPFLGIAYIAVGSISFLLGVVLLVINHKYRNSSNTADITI
UniProt Q96Q45: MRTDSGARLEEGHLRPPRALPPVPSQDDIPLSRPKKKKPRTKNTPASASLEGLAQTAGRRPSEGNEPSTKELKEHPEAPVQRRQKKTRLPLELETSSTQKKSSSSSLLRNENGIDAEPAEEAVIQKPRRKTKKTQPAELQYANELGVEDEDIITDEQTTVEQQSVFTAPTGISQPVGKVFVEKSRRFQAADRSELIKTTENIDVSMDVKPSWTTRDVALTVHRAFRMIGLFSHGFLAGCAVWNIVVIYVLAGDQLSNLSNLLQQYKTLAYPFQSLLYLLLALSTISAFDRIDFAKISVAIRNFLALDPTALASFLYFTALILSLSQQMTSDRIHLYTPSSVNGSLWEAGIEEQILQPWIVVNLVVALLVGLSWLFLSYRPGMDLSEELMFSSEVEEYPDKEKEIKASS
UniProt P02585, whole entry, looked up: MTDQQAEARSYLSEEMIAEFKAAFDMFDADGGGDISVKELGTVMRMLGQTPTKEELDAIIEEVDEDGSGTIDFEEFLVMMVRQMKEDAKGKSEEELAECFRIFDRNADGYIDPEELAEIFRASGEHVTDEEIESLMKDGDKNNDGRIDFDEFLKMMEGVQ
UniProt Q9H0R3: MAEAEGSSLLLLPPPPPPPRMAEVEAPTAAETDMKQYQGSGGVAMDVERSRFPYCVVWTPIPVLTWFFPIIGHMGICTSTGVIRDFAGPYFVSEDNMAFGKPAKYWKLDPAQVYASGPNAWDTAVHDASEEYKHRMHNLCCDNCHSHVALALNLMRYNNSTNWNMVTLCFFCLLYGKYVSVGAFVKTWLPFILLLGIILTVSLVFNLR
UniProt Q9NXH8: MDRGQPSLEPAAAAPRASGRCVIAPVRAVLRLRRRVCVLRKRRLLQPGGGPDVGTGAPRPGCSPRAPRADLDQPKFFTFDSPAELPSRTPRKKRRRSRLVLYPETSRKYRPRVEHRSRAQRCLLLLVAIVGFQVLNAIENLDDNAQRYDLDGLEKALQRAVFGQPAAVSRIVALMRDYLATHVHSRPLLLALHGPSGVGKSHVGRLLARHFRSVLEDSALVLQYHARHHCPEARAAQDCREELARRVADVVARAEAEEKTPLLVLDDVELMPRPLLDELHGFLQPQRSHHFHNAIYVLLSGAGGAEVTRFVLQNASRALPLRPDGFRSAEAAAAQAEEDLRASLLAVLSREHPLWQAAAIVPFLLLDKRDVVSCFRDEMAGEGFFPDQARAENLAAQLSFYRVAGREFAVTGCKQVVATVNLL
UniProt Q15025: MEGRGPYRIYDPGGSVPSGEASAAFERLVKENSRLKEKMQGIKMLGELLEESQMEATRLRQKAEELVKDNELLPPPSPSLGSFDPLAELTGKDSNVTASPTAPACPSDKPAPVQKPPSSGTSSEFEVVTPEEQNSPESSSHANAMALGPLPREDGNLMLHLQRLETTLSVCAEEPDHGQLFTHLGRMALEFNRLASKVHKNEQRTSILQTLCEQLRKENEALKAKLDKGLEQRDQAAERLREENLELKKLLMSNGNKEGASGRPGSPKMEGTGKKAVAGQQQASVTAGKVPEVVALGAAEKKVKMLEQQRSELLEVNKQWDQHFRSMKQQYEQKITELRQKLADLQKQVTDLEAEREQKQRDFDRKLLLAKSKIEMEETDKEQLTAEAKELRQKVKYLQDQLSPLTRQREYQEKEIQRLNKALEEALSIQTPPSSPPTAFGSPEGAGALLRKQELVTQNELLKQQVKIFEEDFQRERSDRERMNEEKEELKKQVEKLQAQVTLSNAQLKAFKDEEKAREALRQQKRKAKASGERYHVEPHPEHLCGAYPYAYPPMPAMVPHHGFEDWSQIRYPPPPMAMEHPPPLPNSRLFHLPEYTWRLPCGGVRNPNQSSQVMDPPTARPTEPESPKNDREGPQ
UniProt Q8IY95: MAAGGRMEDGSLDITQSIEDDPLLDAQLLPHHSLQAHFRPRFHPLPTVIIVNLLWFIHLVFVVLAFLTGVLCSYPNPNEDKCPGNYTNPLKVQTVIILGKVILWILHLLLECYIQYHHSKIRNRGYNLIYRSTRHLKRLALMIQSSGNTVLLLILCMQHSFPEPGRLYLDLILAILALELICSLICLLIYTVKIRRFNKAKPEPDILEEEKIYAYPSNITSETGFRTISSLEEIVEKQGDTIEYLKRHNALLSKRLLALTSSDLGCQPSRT
UniProt Q9Y5L0: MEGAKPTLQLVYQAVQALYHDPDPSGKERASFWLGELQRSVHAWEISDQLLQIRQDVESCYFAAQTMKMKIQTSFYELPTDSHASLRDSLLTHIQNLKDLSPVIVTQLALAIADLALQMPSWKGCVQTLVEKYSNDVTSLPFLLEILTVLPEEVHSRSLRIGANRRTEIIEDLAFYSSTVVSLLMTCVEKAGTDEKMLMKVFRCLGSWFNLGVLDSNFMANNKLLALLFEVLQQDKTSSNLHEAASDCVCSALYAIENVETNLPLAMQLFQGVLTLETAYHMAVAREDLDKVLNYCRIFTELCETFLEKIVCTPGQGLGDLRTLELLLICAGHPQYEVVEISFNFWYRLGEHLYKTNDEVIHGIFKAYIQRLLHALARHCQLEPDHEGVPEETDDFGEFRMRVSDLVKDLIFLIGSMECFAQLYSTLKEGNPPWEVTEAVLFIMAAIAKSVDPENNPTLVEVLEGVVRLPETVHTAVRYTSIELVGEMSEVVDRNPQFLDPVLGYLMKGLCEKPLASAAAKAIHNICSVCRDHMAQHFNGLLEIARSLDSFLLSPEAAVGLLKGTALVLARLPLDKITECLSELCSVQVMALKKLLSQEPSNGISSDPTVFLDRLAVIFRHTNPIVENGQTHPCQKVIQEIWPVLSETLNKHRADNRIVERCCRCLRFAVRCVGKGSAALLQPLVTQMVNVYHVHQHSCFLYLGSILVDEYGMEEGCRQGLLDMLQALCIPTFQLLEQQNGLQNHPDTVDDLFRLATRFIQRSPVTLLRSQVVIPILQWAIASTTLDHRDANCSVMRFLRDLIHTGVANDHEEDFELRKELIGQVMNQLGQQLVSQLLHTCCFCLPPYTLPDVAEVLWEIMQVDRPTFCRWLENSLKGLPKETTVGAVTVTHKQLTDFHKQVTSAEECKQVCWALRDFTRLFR
UniProt A5PLL7: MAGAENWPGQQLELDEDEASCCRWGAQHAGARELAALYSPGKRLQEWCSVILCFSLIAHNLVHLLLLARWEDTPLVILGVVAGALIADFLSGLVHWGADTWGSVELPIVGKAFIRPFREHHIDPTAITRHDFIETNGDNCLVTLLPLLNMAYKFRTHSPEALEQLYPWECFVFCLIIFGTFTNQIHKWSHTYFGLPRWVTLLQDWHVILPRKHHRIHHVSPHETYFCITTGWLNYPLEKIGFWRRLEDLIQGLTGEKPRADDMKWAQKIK
UniProt O43399: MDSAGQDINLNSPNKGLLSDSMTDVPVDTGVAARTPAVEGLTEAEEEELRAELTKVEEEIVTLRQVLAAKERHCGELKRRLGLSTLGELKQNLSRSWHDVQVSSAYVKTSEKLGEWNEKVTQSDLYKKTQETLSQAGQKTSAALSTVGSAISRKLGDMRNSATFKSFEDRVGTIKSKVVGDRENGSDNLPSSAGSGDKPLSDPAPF
UniProt P57088: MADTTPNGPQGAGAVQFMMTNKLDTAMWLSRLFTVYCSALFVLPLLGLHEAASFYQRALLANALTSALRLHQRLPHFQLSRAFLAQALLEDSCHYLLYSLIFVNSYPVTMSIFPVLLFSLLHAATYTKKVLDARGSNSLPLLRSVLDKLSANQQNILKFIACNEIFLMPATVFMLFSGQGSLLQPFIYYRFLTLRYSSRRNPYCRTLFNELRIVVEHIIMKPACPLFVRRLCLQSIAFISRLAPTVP
UniProt P11388: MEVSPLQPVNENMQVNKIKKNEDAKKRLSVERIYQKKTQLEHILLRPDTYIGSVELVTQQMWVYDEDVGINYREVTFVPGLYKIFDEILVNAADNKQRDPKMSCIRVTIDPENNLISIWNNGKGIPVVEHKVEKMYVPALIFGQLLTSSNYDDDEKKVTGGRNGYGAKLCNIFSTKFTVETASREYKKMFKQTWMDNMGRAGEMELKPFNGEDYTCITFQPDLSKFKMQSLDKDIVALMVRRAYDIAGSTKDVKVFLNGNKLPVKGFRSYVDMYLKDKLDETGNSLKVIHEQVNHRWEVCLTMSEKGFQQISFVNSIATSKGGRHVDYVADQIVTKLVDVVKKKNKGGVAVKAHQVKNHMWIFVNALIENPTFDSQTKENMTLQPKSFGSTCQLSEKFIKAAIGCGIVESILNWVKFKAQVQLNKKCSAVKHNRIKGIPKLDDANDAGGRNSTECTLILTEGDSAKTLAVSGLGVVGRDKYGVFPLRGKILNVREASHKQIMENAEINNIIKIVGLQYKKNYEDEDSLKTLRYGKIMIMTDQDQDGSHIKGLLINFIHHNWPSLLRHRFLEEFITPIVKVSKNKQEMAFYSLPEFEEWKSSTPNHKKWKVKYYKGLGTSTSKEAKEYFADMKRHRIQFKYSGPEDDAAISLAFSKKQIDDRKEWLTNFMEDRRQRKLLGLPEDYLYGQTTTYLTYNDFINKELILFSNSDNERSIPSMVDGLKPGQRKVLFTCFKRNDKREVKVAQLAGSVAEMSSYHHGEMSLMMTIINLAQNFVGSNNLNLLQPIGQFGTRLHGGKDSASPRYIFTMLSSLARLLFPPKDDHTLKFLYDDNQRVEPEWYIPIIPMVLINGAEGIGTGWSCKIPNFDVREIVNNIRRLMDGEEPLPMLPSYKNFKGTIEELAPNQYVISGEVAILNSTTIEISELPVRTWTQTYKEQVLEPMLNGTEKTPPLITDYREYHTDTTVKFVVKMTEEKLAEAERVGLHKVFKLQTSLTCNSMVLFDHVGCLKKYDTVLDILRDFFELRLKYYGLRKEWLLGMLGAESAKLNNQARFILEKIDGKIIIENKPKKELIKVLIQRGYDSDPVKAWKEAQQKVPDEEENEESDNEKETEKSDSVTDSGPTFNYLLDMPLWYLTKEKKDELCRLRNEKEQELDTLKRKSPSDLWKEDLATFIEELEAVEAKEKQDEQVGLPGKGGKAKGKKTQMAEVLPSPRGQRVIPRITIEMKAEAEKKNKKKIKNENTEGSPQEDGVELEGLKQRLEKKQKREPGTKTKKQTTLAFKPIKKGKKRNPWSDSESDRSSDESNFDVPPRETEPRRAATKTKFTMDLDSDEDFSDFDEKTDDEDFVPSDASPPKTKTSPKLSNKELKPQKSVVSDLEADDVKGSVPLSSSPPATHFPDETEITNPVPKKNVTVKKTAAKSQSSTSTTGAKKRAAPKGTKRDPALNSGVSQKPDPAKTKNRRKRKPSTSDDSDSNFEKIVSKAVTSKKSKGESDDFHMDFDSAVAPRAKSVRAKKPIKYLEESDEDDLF
UniProt O00220, whole entry, looked up: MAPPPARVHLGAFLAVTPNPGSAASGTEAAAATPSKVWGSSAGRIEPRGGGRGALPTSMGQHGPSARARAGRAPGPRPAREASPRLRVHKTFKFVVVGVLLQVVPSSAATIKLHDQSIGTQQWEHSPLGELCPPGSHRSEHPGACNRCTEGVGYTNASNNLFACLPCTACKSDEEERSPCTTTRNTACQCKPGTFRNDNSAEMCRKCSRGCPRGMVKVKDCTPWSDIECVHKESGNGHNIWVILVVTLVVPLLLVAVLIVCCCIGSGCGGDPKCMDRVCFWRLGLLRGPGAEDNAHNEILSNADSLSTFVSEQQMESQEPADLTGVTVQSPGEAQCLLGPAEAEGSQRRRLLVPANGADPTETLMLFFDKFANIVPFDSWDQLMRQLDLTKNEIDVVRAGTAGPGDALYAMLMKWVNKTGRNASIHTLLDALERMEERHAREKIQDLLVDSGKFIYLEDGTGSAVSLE

Assays:
Experiment in all cases: log2 fold change, soluble protein after heating vs DMSO (PISA); higher = thermal stabilisation; K562 lysate, 10 uM; active = over 0.2 and 3.5 SD of the protein, either way, in both replicates (recomputed)
nilotinib = compound: Cc1cn(-c2cc(NC(=O)c3ccc(C)c(Nc4nccc(-c5cccnc5)n4)c3)cc(C(F)(F)F)c2)cn1 [nilotinib]
Summary of the method: (§1)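 The values are log-two fold changes in thermal stability compared with solvent controls and come from duplicates. They were obtained by TMTpro 16plex LC-MS/MS, with channel sums equalised, on the supernatant after 21,000xg for 90 min. That supernatant came from crude K562 extract at 1 mg/mL protein treated with 10 μM compound for 30 min, heated for 3 min across 48°C-58°C, pooled and brought to 0.5% NP-40 at 4°C.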

[1] = compound: Cc1nc(Nc2n[nH]c3c2CN(C(=O)N[C@H](CN(C)C)c2ccccc2)C3(C)C)c2sccc2n1
Summary of the method: as §1

dasatinib = compound: Cc1nc(Nc2ncc(C(=O)Nc3c(C)cccc3Cl)s2)cc(N2CCN(CCO)CC2)n1 [dasatinib]
Summary of the method: as §1

[2] = compound: Cc1ncc(-c2ccnc(Nc3ccc(S(C)(=O)=O)cc3)n2)n1C(C)C
Summary of the method: as §1

[3] = compound: Cn1cc(-c2ccc3c(c2)CCN3C(=O)Cc2cccc(C(F)(F)F)c2)c2c(N)ncnc21
Summary of the method: as §1

quisinostat = compound: Cn1cc(CNCC2CCN(c3ncc(C(=O)NO)cn3)CC2)c2ccccc21 [quisinostat]
Summary of the method: as §1

tipifarnib = compound: Cn1cncc1[C@@](N)(c1ccc(Cl)cc1)c1ccc2c(c1)c(-c1cccc(Cl)c1)cc(=O)n2C [tipifarnib]
Summary of the method: as §1

[4] = compound: NC(=O)Nc1cc(-c2cccc(F)c2)sc1C(=O)N[C@H]1CCCNC1
Summary of the method: as §1

[5] = compound: NC(=O)c1cnc(N[C@@H]2CCCC[C@@H]2N)nc1Nc1cccc(-n2nccn2)c1
Summary of the method: as §1

[6] = compound: NC1(c2ccc(-c3nc4ccn5c(=O)[nH]nc5c4cc3-c3ccccc3)cc2)CCC1
Summary of the method: as §1

Target | log2 fold change (nilotinib) | log2 fold change [1] | log2 fold change (dasatinib) | log2 fold change [2] | log2 fold change [3] | log2 fold change (quisinostat) | log2 fold change (tipifarnib) | log2 fold change [4] | log2 fold change [5] | log2 fold change [6]
TOR3A (UniProt Q9H497) | inactive: 0.042 | inactive: -0.037 | inactive: 0.022 | inactive: -0.043 | inactive: 0.012 | inactive: 0.019 | inactive: -0.061 | inactive: 0.054 | inactive: 0.041 | inactive: -0.064
TMOD1 (UniProt P28289) | inactive: -0.029 | inactive: -0.032 | inactive: 0.011 | inactive: -0.02 | inactive: 0.014 | inactive: -0.007 | inactive: -0.013 | inactive: 0.031 | inactive: 0.008 | inactive: -0.015
TMEM30A (UniProt Q9NV96) | inactive: 0.002 | inactive: 0.02 | inactive: 0.041 | inactive: -0.056 | inactive: 0.159 | inactive: 0 | inactive: -0.12 | inactive: -0.038 | inactive: 0.02 | inactive: 0.022
TMEM237 isoform 3 (UniProt Q96Q45) | inactive: 0.02 | inactive: -0.015 | inactive: -0.035 | inactive: 0.07 | inactive: -0.035 | inactive: 0.14 | inactive: 0.282 | inactive: -0.065 | inactive: 0.05 | –
TNNC2 (UniProt P02585) | inactive: 0.011 | inactive: 0.027 | inactive: 0.007 | inactive: 0.025 | inactive: 0.005 | inactive: -0.051 | inactive: 0.095 | inactive: -0.002 | inactive: -0.027 | inactive: 0.004
TRA2A (UniProt Q13595) | inactive: 0.098 | inactive: -0.041 | inactive: -0.08 | inactive: -0.124 | inactive: 0.077 | inactive: -0.213 | inactive: -0.114 | inactive: -0.206 | inactive: 0 | inactive: -0.062
TOPBP1 (UniProt Q92547) | inactive: 0.013 | inactive: -0.056 | inactive: 0.003 | inactive: 0.006 | inactive: 0.02 | inactive: -0.018 | inactive: 0.049 | inactive: -0.002 | inactive: 0.039 | inactive: -0.007
TMEM245 (UniProt Q9H330) | inactive: 0.031 | inactive: 0.098 | inactive: -0.037 | inactive: 0.052 | inactive: 0.038 | inactive: 0.046 | inactive: -0.035 | inactive: 0.005 | inactive: 0.05 | inactive: -0.009
TMEM222 (UniProt Q9H0R3) | inactive: 0.06 | inactive: -0.021 | inactive: 0.042 | inactive: -0.028 | inactive: 0.052 | inactive: -0.032 | inactive: -0.208 | inactive: 0.032 | inactive: -0.09 | inactive: -0.059
TOR4A (UniProt Q9NXH8) | inactive: -0.074 | inactive: 0.022 | inactive: -0.033 | inactive: 0.005 | inactive: 0.011 | inactive: -0.061 | inactive: -0.018 | inactive: 0.039 | inactive: 0.111 | inactive: -0.001
TMEM87B (UniProt Q96K49) | inactive: 0.008 | inactive: 0.086 | inactive: -0.006 | inactive: -0.02 | inactive: 0.023 | inactive: -0.012 | inactive: -0.011 | inactive: -0.016 | inactive: -0.019 | inactive: -0.048
TNRC6B (UniProt Q9UPQ9) | inactive: -0.395 | inactive: 0.014 | inactive: 0.01 | inactive: 0.002 | inactive: 0.025 | inactive: 0.021 | inactive: -0.004 | inactive: 0.073 | inactive: 0.005 | inactive: 0.014
TNIP1 (UniProt Q15025) | inactive: -0.002 | inactive: 0.036 | inactive: -0.011 | inactive: -0.008 | inactive: -0.034 | inactive: 0.012 | inactive: 0.035 | inactive: 0.021 | inactive: 0.047 | inactive: -0.014
TP53BP2 isoform 3 (UniProt Q13625) | inactive: -0.024 | inactive: -0.034 | inactive: 0.013 | inactive: 0.01 | inactive: -0.046 | inactive: -0.067 | inactive: -0.018 | inactive: 0.028 | inactive: -0.022 | inactive: 0.022
TMEM192 (UniProt Q8IY95) | inactive: 0.007 | inactive: 0.001 | inactive: -0.013 | inactive: -0.004 | inactive: 0.023 | inactive: -0.065 | inactive: 0.01 | inactive: 0.01 | inactive: -0.044 | inactive: 0.022
TOLLIP (UniProt Q9H0E2) | inactive: -0.029 | inactive: 0.004 | inactive: -0.016 | inactive: -0.052 | inactive: -0.026 | inactive: -0.021 | inactive: -0.044 | inactive: 0.01 | inactive: 0.011 | inactive: -0.011
TNPO3 (UniProt Q9Y5L0) | inactive: -0.016 | inactive: 0.017 | inactive: 0 | inactive: 0.003 | inactive: 0.009 | inactive: -0.001 | inactive: 0.001 | inactive: -0.002 | inactive: -0.016 | inactive: -0.01
TMEM189 (UniProt A5PLL7) | inactive: 0.023 | inactive: 0.061 | inactive: -0.001 | inactive: -0.026 | inactive: -0.198 | inactive: -0.157 | inactive: 0.036 | inactive: 0.062 | inactive: 0.056 | inactive: -0.032
TPD52L2 isoform 7 (UniProt O43399) | inactive: 0.022 | inactive: 0.019 | inactive: 0.056 | inactive: 0.042 | inactive: -0.009 | inactive: 0.038 | inactive: -0.012 | inactive: -0.022 | inactive: -0.039 | inactive: 0.049
TMEM33 (UniProt P57088) | inactive: 0.034 | inactive: -0.007 | inactive: 0.041 | inactive: -0.006 | inactive: -0.009 | inactive: -0.02 | inactive: -0.049 | inactive: 0.005 | inactive: -0.011 | inactive: -0.016
TOP2A isoform 4 (UniProt P11388) | inactive: -0.023 | inactive: 0.021 | inactive: 0.058 | inactive: -0.029 | inactive: -0.019 | inactive: -0.006 | inactive: 0.043 | inactive: 0.067 | inactive: -0.015 | inactive: -0.03
TMEM263 (UniProt Q8WUH6) | inactive: 0.151 | inactive: 0.153 | inactive: -0.134 | inactive: -0.079 | inactive: 0.011 | inactive: 0.021 | active: -0.512 | inactive: 0.063 | inactive: -0.021 | inactive: -0.154
TMEM65 (UniProt Q6PI78) | inactive: -0.199 | inactive: 0.081 | inactive: -0.081 | inactive: -0.118 | inactive: 0.049 | inactive: 0.014 | inactive: -0.154 | inactive: -0.078 | inactive: 0.018 | inactive: -0.016
TOE1 (UniProt Q96GM8) | inactive: -0.039 | inactive: -0.012 | inactive: 0.016 | inactive: 0.04 | inactive: 0.015 | inactive: -0.036 | inactive: 0.006 | inactive: 0.023 | inactive: -0.013 | inactive: -0.01
TNKS1BP1 (UniProt Q9C0C2) | inactive: 0.006 | inactive: 0.004 | inactive: 0.014 | inactive: 0.005 | inactive: -0.001 | inactive: -0.031 | inactive: -0.035 | inactive: 0.003 | inactive: 0.004 | inactive: 0.012
TNFRSF10A (UniProt O00220) | inactive: 0.067 | inactive: 0.036 | inactive: 0.03 | inactive: 0.064 | inactive: 0.02 | inactive: 0.015 | inactive: -0.035 | inactive: 0.011 | inactive: 0 | inactive: 0.029
TOMM22 (UniProt Q9NS69) | inactive: 0.043 | inactive: 0.011 | inactive: 0.033 | inactive: 0.094 | inactive: -0.073 | inactive: -0.021 | inactive: -0.014 | inactive: 0.038 | inactive: -0.054 | inactive: 0.027
TPST2 (UniProt O60704) | inactive: -0.02 | inactive: -0.03 | inactive: -0.007 | inactive: 0.016 | inactive: 0.008 | inactive: -0.076 | inactive: -0.058 | inactive: 0.064 | inactive: -0.064 | inactive: -0.087
TPRG1L (UniProt Q5T0D9) | inactive: 0.127 | inactive: 0.096 | inactive: -0.06 | inactive: -0.153 | inactive: 0.055 | inactive: -0.104 | inactive: -0.771 | inactive: -0.017 | inactive: 0.027 | inactive: -0.036
